From patent US20190300618A1 (Merck Sharp & Dohme, published 2019)

Columns and labels:
HsCD27 (D249H) = test: flow cytometry, transiently transfected CHO-K1
MmCD27 (H258D) = test: flow cytometry, transiently transfected CHO-K1

B1: chimeric hCD27.15-c4 (antibody, human IgG4 S228P, kappa, V domains shown)
VH: EVRLQQSGADLVKPGASVKLSCTASGFIIKATYMHWVRQRPEQGLEWIGRIDPANGETKYDPKFQVKATITADTSSSTAYLQLNSLTSDDTAVYYCARYAWYFDVWGAGTTVTVSS
VL: DIQMTQSPASLSASVGDTVTITCRASENIYSFLAWYHQKQGRSPQLLVYHAKTLAEGVPSRFSGSGSGTQFSLKINSLQAEDFGSYYCQHYYGSPLTFGAGTKLEVKR
binding (HsCD27 (D249H)): no binding | binding (MmCD27 (H258D)): binds

Results are given in words; binding and its absence hold for the method and conditions named. For some assays here: Binding calls can cover weak binding; strength is not graded here.
